Sequences and labels used below:
B1: il2ra_site1_2b5i_sap_25_mot_0e5a94e4a5addaac739760efb25f0f5d_0001_000000246_0001_18_32_H_._HHH_b2_02129_0001_0000200019_0000001_0_0001_af2pred_dldesign_0_af2pre … (protein)
chain: SSSSMSPRELARALFERARALLEAKEDPLLARRLALLARRIARRAGDEELVAEIDALLERLSSSS
B2: il2ra_site1_1z92_sap_19_mot_ems_3hM_2358_af2_000000278_0001_1_21_H_._HHH_b2_00289_af2_0001_0000400016_0000001_0_0001_af2pred_0001_af2pred_1_swapped (protein)
chain: SSSSSEEEKEAEKIVEELVEEFGLDEEAKEALRLDAERALENGISPKSIRRALEDAARRTSSSSS
B3: il2ra_site1_1z92_sap_23_mot_HHH_b1_05862_af2_000000270_0001_22_38_H_._HHH_b1_00476_0001_0000100006_0000001_0_0001 (protein)
chain: SSSSSAREYIEEMARALFRTIEAKGNPRAREMLEWLLRQARILGDEELRRLIEELLEELRSSSSS
B4: il2ra_site2_2erj_sap_26_mot_HHH_b1_04859_000000124_0001_24_41_H_._dd4073a288970bb258a5370782f75e7e_0001_1_0001_0002300117_0000001_0_0001 (protein)
chain: SSSDKEEAEELYEKARELLERGNPEEALRVLREAATLAFESGDEELFRKLDELAHEIARAGSSSS
B5: il2ra_site1_2b5i_normal_mot_2cbe48e66a1f39b3fed734b245ab0a04_0001_000000015_0001_17_31_H_._HHH_b2_02110_0001_0000200009_0000001_0_af2pred_dldesign_0_af2pred (protein)
chain: SSSSSSDPRARVRALLEKAETLKDEVEKHKVLSEALYLARATGDEALLAEVERKAAELSSSSSSS
B6: il2ra_site1_1z92_sap_15_mot_HHH_b1_06078_000000124_0001_1_18_H_._HHH_b1_06833_af2_0001_0000100001_0000001_0_0001 (protein)
chain: DEELEELLERVEKGDPEAREELLELLSKLMGSPPEAVEADLERTERFFGDPSQALKALIQIARKL
B7: il2ra_site1_1z92_sap_29_mot_HHH_b1_08133_000000119_0001_1_19_H_._HHH_b2_01664_0001_0000100002_0000001_0_0001 (protein)
chain: SSSSSTERAIRWALELLRAAERLNNEEQQEFLVRDARMLAERSNNPEARKLVEEMEELLGSSSSS
B8: il2ra_site2_3nfp_sap_16_mot_HHH_b2_02942_af2_000000138_0001_1_15_H_._ems_p1-15H-GBL-16H-GBL-14H_0089_0001_0001_0001_0001_0000300013_0000001_0_0001 (protein)
chain: SSSSDRELAEEVIESARTALELGNPEKARLALELARAHALLLGDEELREEIEKLLREVEELSSSS
B9: il2ra_site2_2erj_sap_35_mot_HHH_b1_08609_af2_000000264_0001_43_56_H_._3ee87299db9bf54915f2e612e5595e5c_0001_1_0001_0000100002_0000001_0_0001_af2pred_0001_1_af2p … (protein)
chain: SSSSDHEEELRLASARNAAEIALEEGDEEEARLLLELFLELLEELGDEEILEELEEFLRRISSSS
B10: il2ra_site2_2erj_normal_mot_6bd1339e93f6fdda22195c76da45ec5d_0001_000000136_0001_37_51_H_._HHH_b2_01001_0001_0000200004_0000001_0 (protein)
chain: SSSSSDEVEERVEELLEEARQIDDPAERYSVLSEAAELALENDDEEALRLIREVFAELAQSSSSS
B11: il2ra_site1_3nfp_normal_mot_HHH_b1_01231_af2_000000170_0001_1_16_H_._HHH_b1_07288_0001_0000400014_0000001_0 (protein)
chain: SSSSTERVRELIQKALRLAYEGNLEEAREVLREAEELARELNDESLERFLELLEKAIELHSSSSS
B12: il2ra_site1_3nfp_sap_15_mot_HHH_b1_01643_af2_000000062_0001_1_20_H_._HHH_b1_06862_0001_0000400010_0000001_0_0001_af2pred_0001_af2pred (protein)
chain: SSSSTELARRVDELIKLASEALQEGDKEEFKRILEELEEIAEEANDPAIRWAVEALRKAFSSSSS
B13: il2ra_site1_1z92_normal_mot_HHH_b1_02810_af2_000000169_0001_43_57_H_._HHH_b1_03082_af2_0001_0000300010_0000001_0_af2pred_0001_af2pred (protein)
chain: SSSSSEELEELLEEVKELLEQARENGDERLARELEFLLRVAEKQHNPRIARYAIEAARSFSSSSS
B14: il2ra_site2_3nfp_normal_mot_HHH_b1_07242_000000112_0001_19_39_H_._ems_3hM_250_0001_0000500009_0000001_0 (protein)
chain: SNEELERYIEAALRLAKEAARDPRIQEEIEEVLKEFEEAKEKNDEHALAEVAHLALELAELAARS
B15: il2ra_site2_2erj_normal_mot_HHH_b2_01204_af2_000000056_0001_19_34_H_._HHH_b2_02030_0001_0000300005_0000001_0 (protein)
chain: SSSSSDEEEVQELLERAEKSDDLREIYELLVRALHIASKTNNDELQRLITEVAERIARGSSSSSS
B16: il2ra_site2_2erj_normal_mot_HHH_b1_01239_000000175_0001_43_57_H_._HHH_b1_01477_0001_0000100001_0000001_0_1_af2pred_0001_af2pred (protein)
chain: SSSSSDREEVEEEVRELLEEAERIPDQREALKLLQKAARLAEEIGDPELHELVLEVARRLSSSSS
B17: il2ra_site2_2erj_normal_mot_43ff22814c79cc0f844b9f0307205ae1_0001_000000293_0001_18_33_H_._HHH_b1_01756_0001_0000900011_0000001_1 (protein)
chain: SSSSSSDIEEEVLELIAKAAHIKDEEEARKVLEEALEVAEEGNDPLLARFVELSLEDQSSSSSSS
B18: il2ra_site1_1z92_normal_mot_HHH_b2_05238_af2_000000252_0001_38_55_H_._HHH_b1_08154_af2_0001_0000200002_0000001_1 (protein)
chain: SSSSSEEEAAQILIQAAERAIKAGDKRSAERFIEFLERQVEDEGDEELEKIVEELKELLKSSSSS

The list shows a part of the results.

This assay concerns the target il2ra, P01589. In words: yeast display titration.
For B1, the “apparent Kd” value was “inactive: no binding seen”.

In the case of B2, the “apparent Kd” value is “inactive: no binding seen”.

With B3, the “apparent Kd” value is “inactive: no binding seen”.

On to B4, for which the “apparent Kd” value is “inactive: no binding seen”.

Turning to B5, the “apparent Kd” value is “inactive: no binding seen”.

B6: the “apparent Kd” value was “inactive: no binding seen”.

Consider B7, for which the “apparent Kd” value is “inactive: no binding seen”.

As to B8, the “apparent Kd” value is “inactive: no binding seen”.

As to B9, the “apparent Kd” value was “inactive: no binding seen”.

Take B10: the “apparent Kd” value is “inactive: no binding seen”.

As to B11, the “apparent Kd” value was “inactive: no binding seen”.

On to B12, for which the “apparent Kd” value was “inactive: no binding seen”.

On to B13, for which the “apparent Kd” value is “inactive: no binding seen”.

As for B14, the “apparent Kd” value was “inactive: no binding seen”.

On to B15, for which the “apparent Kd” value was “inactive: no binding seen”.

Regarding B16, the “apparent Kd” value was “inactive: no binding seen”.

With B17, the “apparent Kd” value is “inactive: no binding seen”.

Regarding B18, the “apparent Kd” value was “inactive: no binding seen”.

The values above are taken from paper PMC10163288.
